Measured values reported in paper PMC11068891.
These are yes or no findings as the source states them, for the method shown. Binding seen in cells or lysates may run through a third protein. Here binding means that the protein was enriched with, or labelled near, the bait; the list need not be complete. A no says only that the protein was not detected with the bait. Tags and fused reporters may be left off the sequences shown.

By UniProt entry, the sequences of proteins in these tests, tags left out. Where a name states a change or a piece, a line headed by the entry shows the natural chain unless it says otherwise.
UniProt A0A5K1K8Y8: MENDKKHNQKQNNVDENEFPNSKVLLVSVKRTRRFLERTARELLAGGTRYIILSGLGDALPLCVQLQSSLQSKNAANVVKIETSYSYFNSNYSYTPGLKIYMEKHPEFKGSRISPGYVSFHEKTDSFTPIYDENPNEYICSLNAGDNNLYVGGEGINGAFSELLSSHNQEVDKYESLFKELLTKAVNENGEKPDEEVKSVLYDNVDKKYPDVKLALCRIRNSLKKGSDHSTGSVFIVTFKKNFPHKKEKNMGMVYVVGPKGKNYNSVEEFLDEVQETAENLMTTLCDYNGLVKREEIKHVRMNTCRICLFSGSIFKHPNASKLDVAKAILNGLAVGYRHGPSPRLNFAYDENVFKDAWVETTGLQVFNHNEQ
UniProt Q8IAX8: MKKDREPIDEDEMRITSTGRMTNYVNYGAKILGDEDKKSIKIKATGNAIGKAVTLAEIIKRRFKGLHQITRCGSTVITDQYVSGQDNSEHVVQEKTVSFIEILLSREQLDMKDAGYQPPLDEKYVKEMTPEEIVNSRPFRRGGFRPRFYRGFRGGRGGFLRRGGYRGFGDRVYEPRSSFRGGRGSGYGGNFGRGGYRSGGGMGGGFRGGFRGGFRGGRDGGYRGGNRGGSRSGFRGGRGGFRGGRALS
UniProt Q8IJX8: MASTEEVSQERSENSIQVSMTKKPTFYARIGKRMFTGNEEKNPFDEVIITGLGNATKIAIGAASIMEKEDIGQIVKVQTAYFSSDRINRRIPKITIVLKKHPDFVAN
UniProt C0H4T9: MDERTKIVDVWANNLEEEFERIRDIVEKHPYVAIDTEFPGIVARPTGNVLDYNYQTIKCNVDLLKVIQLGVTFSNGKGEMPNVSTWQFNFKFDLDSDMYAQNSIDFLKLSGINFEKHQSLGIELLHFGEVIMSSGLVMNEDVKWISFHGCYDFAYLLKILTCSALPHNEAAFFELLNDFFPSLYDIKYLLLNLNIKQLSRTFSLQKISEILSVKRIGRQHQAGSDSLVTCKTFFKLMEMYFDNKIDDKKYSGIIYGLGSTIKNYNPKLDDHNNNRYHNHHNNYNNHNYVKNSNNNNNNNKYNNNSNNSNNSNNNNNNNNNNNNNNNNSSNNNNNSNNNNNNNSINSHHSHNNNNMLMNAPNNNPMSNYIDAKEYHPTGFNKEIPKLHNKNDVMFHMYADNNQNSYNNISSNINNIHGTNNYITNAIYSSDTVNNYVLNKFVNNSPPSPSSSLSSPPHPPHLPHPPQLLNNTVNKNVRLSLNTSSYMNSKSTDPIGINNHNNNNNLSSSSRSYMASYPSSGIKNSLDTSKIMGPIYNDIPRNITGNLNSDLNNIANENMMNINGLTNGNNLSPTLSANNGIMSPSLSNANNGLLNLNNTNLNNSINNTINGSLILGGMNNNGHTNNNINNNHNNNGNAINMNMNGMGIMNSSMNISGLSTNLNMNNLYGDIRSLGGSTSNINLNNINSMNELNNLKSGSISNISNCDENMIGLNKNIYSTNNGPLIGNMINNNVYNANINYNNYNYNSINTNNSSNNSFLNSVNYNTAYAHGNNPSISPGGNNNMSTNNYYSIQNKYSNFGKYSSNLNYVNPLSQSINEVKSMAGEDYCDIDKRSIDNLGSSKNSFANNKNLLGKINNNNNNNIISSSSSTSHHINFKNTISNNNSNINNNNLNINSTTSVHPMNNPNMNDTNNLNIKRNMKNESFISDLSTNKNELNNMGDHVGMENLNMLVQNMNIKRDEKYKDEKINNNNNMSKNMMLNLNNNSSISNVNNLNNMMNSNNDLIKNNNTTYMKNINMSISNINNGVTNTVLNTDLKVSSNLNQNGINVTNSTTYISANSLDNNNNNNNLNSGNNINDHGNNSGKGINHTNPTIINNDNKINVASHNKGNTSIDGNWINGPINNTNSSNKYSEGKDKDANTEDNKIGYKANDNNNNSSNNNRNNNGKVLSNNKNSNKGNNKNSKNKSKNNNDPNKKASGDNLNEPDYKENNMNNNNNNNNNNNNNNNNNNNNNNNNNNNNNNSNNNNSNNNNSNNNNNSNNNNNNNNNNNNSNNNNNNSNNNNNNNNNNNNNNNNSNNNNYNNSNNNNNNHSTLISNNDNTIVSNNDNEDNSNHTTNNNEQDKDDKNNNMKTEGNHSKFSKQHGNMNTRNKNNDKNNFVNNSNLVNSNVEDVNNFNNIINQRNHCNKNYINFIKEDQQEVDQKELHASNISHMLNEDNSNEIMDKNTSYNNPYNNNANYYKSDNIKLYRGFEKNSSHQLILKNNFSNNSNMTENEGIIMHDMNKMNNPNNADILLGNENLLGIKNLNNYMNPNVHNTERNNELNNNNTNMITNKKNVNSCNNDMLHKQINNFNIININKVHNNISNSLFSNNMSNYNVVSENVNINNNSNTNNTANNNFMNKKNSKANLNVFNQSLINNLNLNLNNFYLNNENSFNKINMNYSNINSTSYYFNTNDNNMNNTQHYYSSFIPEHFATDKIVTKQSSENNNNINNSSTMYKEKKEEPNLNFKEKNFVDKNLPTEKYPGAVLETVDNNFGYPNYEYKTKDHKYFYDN
UniProt Q8IJN7: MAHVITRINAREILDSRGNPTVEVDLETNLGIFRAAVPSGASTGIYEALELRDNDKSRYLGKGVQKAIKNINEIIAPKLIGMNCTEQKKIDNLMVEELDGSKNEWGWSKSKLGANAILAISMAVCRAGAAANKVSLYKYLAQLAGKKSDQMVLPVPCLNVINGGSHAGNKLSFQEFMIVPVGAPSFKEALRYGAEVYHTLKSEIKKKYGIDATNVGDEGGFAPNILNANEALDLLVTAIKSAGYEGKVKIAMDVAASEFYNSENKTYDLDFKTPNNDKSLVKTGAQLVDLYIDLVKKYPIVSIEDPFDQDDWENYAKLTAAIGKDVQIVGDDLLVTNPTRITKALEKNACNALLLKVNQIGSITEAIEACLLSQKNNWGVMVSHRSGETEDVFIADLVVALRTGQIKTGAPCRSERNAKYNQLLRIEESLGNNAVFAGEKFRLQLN
UniProt Q8IBH7: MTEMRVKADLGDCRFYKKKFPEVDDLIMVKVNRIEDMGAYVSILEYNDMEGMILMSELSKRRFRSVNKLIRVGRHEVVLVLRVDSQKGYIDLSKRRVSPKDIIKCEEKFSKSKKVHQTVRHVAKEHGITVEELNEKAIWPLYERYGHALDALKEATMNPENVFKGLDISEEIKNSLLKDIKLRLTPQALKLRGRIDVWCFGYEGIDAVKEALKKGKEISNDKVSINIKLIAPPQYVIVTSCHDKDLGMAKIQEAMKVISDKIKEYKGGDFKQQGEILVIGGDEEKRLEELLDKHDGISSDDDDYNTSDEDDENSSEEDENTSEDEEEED

T1: PfDOZI::GFP (P. falciparum (endogenous in 3D7 parasites)) (UniProt O97285)
T1 sequence: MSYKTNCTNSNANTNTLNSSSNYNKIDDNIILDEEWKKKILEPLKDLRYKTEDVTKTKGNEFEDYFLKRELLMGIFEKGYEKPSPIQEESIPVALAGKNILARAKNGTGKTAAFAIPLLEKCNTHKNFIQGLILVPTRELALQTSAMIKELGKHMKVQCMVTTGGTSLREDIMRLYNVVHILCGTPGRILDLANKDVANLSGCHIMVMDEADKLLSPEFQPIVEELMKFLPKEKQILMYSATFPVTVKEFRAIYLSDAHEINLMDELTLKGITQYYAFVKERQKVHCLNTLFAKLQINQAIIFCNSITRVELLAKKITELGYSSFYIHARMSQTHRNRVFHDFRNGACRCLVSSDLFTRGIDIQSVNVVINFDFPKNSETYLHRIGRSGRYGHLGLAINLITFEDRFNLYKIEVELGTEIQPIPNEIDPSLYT

B1: CELF1 (protein, UniProt Q8IDB7 1-509)
chain: MDDHENIDINDNSSDANTANYNQDKNENTSEVNDYSKEDIEGDENLKSSKGKQENNTKSSSDKDENTIDYGNHDFPCNPAPPVPIKLFIGRVPKNIEEDQLRPIFEEYGIVNEVVIIRDKITNVHKSSAFVKMASISEADNAIRLLNNQKTLDAQLGSLQVKYASGELNKLGFPQNIESGVDQAKLFIGSLPKNITEDNIKEMFSPYGTVEEVFIMKDNSTGLGKGCSFVKFSYKEQALYAIKSLNGKKTLEGCTRPVEVRFAEPKSSKQPQIPLTLQPMQNPPHAMAPQPSISSPNNINFGNNFSVNNNYPRQVGPWKEYYSGEGRPYYYNEQTNTTQWEMPKEFETLFMNNSANMHNLSESSGPPGANLFIFHVPNEWQQTDLIQAFSPFGELLSARIATEKNTGRNRGFAFVSYDSLESAAAAISQMNGFMALNKKLKVTVKKGEEDEMKKYVNQNGVNSFQQVPRVQKAIPAQPASMQPNLAYHQNPQAQNFFYSNSNSYRCGPY
B2: CELF2/HoBo (protein, UniProt Q8ILZ7 1-514)
chain: MSYLSNMSNMNNMNNSTQQYNNENSESPYGEARMSEQCSYQMNSPYNPAPSIPIKLFVSSIPKNLTEEDIKSIFQEYGNIQDVVFIKDKKPNVNRSNVFVRMESIFYGQKAIKDLHGKRTLCETLGPLIVKFAIGELEKYGVNMNNANENEAKLFVGSLPKEITEEELRELFNRYGNVTEVYIMKNSNGISKRCAFVNYAYKEQGIFAIQNMNGKIATENAEKPIEVRFAETKNQLQEKHLFNRSLMNPLNNNMNNMDNMNNMDNMENMDNFDNNNNNNNSSYMQSHAFKNMNMDNFNRYSMNMNFNMQNNNNNQRNNNNNNNGNNNNDNNNNNNINNNNSNGNNNNNSSSNNNSPWKQYYSKEEGRPYYHNEITGETQWQKPRKIEQSFINPINMNEITGPVGANIFIFHIPNEWIQTDLLSAFSPFGNIISAHIATERDTGRNRGFAFVSYDNVDSAINAVKYMNGFLAHKKKLKVTIKKGEEQYVQALINQRNKLNSNDARRNFMENTTNA
B3: XRN1 homolog (PF3D7_1106300) (enzyme, UniProt A0A143ZZN7 1-733)
chain: MIAFISLWVLCIINVMAYCISLNKYKFIKSYNLYNKRKHQQNVLYGIPRMYKWLTSYYPTVREELINNEKQKSVDIFYIDMNGVIHHCTHANKEKLPIYDEHELFSNILQYLKNLFYLIKPKKLIYIGVDGVSPKAKMNQQRKRRFLSIFKINDNDNTSNLFNPNCITTGTDFMYKINLSLNKWFKILKKKKVFEFDVIFSGSDVAGEGEHKILKYIRENCKRDSNFKNYNHCIYGLDADLIMLSLVTHLNNIFILRDKFKISNDLHNNMLENIERTQNTFNNDEYNSFNEPQNDNINYNEEGENIQLNEKSKTNESLVKEENNVEYENNEEINNEINNEINNEINNEINNEINNEINNEINDEINKEINNGINNGINNGINNEINNEINNEINNGINNEINNSEGMNNILGGYKIPFLPKVHKYTKEYYMKYESLNSNDFEILDIYKLRNSIKTQIATYINKLKKEKNIVFSISRVVDDIVFLSFLVGNDFLPHIPNIDINEGSMNEILNSYIFYIYKYSNYITYKDKVHIERLKIILKILSAQEFEYFKKRGINENISEFTDEQKYKKYYYLHKFGLEDPKEIQNIVKKYIEGLFWNLHYYHFGCASWYWEYPYHYAPLCSDLLSFEKSDFFFEKGKPYSAFTHLISVLPQKDKNLLPDAYKNIYVEDEVKSFFPENVKIDPNGKKETWEYIVHLPFINCNMINKIITEKSKTISKLKYKLRELNGREHRY
B4: DCP1 (protein, UniProt Q8IJ85 1-1190)
chain: MKKRNTLSTSYGRLKGRVSRYDMNSSYNLNEHKNNKNSALEEIKDYKTGETSHDNINGNNINNNKNINNNNKINNNKINSSNNCALVNSSNTINNNLNNINNINNISNTNHSVNNSTYQSCNNKYNKNGFVYDYNTYYTKKSSDLKGKLKNENESMNSDGNNDVTRINSNHSNNIVLNDLNNSMNSLNIPKDNNISHVNNMTPINNMMKGINNRNDSVNTHMYNMKNLKDIRLYNHKEKKNVNEENVNVDQDNEEKNLVETQNENDKRNEKKEEDDDEDVDEAEEKEEEGMKLLREKICFKMLKSIDIYITEIIMKSCFVTVYKMKDDELKWKRADIEGFLYIVKRSIKPYYRLIITNKKNEKHLLQDIDTNMNLSTDQNYIFYRIINEETNVRNIYSLWFYSTEEKEQIYKVLKNIVEKAYQEKVGITQDNTNNVSNMNNICNVNNNRNSILTNIGSMKNGSVTMEEKLEIISEQMRKMSLRPENKESHKIIQNEHIEDNNHNEANIYNNNHNEANIYNNNHNDDNIYNNNHNEANIYNNNHNEANIYNNNHNNDNIYNNNHNNDNIYNNNHIGSSNFLKKSSLETNLISPNLINNSTIINQINNMTSLKNMKYNKMLPLKPDYNVGNDKEHILELIKNKNDIESIKRKIMSAADNTFPDAYLNNYHVGIINNMNNMNNMNNINNVNNINNMSNINNMSNINNMSNINNMSDINNVNSLPSINNNNNNNNQSGNTNIYNPNINVSTKKDEKAGRKLLYLIKGLSMVHDKNTEQNIMLNDELNNNKSPNILNKSYIDNNKNNGSHNEINSKKGGEAIMSLLGLSKNVDTKLEDDKKKNKKKKKNNSMNNSVLSSNNNMIENVDNMIKNNDSIIKNNDSIIKNNDHMIQNNDHMIQNNDHMVDSNNNYYISHNNVDKNVGDIVNLKNAQANLNQNIMYNNICKKKESGIGNVQKYENDLHNNSSFKYSKNLNKYENDDIVTLYNNNNNNNNNHNHTLGMSNEGEEKEMTTALLNIIKMKSSKTNVNNINELNNINELNNINKLNNMSRHNDNNVESNVLNPYNTNSYNVLLKMKSEIEKDEKKIINMIDNNHNNKNNNYNMNNKSSFNNNINNSHNNGSVFEETNHIVKYEKNNNKYEHTNNNISTNTSNFKNKSITLNRNTIHNIIKEILQSDEFIDLLWNKLTANQHFS
B5: eIF4E (protein, UniProt O97266 1-227)
chain: MKYLTFNKNNRDAIDLSEKLEATKIDLSNPLLLQYNWVIWEQVSDNKIKQSNNYKDYTRPLAKFNSVQKFWQLWNRLPQPSDLLAQRSMTRFSEDGIFRIVDALMIFRDNIQPMWEDPANSGGGHFEYKILPKDYPYSQIDEFWNNLVLAIIGCSLKHYDLITGIRLVDKLSTTRYGYIRIEIWYTTITDESVKNYLRKDLEEHMCNRIDGSTIFPPRVKSLSHIHR
B6: PABP2 (protein, UniProt Q8I2R8 1-202)
chain: MEQVNIDQMNAEKAKGDGANFKVQVDDINNIDKEFSDLQKLKMMNEGAEIQMNQGGNVDSHEQEQEEINNRSIFVGNVDYSTQPEELQSLFSECGLINRVTILVNKNTGHSKGYAYIEFADASSVRTALSLSESFFKKRQIKVCSKRRNIPGFNRPKISPFRGRGMKSALGVRGRLRQPSFRPFYRGRGAYKKIVTNPYERT

These molecules were tested against T1, PfDOZI::GFP (P. falciparum (endogenous in 3D7 parasites)) (assay: affinity purification with mass spectrometry; GFP-Trap beads with lysate of PfDOZI::GFP schizonts under normal culture, native conditions; lysis and wash buffer 300 mM NaCl, 20 mM HEPES pH 7.9, 2 mM MgCl2, 0.2 mM EDTA, 0.1% NP40, 0.5 mM DTT; 4 °C, 2 h; agarose beads as control; LC-MS/MS in triplicate, SAINT, FDR 1%).

binding	Molecule
binds	LSm2
binds	Alba4 (from UniProt A0A5K1K8Y8)
binds	LSm4
binds	LSm12
binds	LSm3
binds	Alba1 (from UniProt Q8IAX8)
binds	LSm7
binds	Alba3 (from UniProt Q8IJX8)
binds	LSm1
binds	CAF1 (from UniProt C0H4T9 1-1774)
binds	B1
binds	B2
no binding	B3
binds	B4
binds	B5

The molecules below were run against T1, PfDOZI::GFP (P. falciparum (endogenous in 3D7 parasites)) (assay: affinity purification with mass spectrometry; GFP-Trap beads with lysate of purified PfDOZI::GFP gametocytes (day 5), native conditions; same buffers (300 mM NaCl, 0.1% NP40), 4 °C, 2 h; agarose beads as control; LC-MS/MS in triplicate, SAINT, FDR 1%).

binding	Molecule
binds	Alba4 (from UniProt A0A5K1K8Y8)
binds	enolase (from UniProt Q8IJN7 1-446) (enzyme)
binds	Alba1 (from UniProt Q8IAX8)
binds	Alba3 (from UniProt Q8IJX8)
binds	6-phosphofructokinase (enzyme)
binds	B2
no binding	B3
binds	B5

What follows are molecules tested against T1, PfDOZI::GFP (P. falciparum (endogenous in 3D7 parasites)) (assay: affinity purification with mass spectrometry; GFP-Trap beads with lysate of PfDOZI::GFP schizonts under nutrient starvation (stressed schizonts), native conditions; same buffers (300 mM NaCl, 0.1% NP40), 4 °C, 2 h; agarose beads as control; LC-MS/MS in triplicate, SAINT, FDR 1%).

binding	Molecule
binds	eIF2α (from UniProt Q8IBH7)
binds	eIF3M
binds	PAIP1 (PABP-interacting protein 1)
no binding	B3
binds	B6
